# Assay results: paper PMC7819943, “Rice protein-binding microarrays: a tool to detect cis-acting elements near promoter regions in rice”
# Chains of the proteins cited; added tags and fusions are not shown.
# UniProt Q0JBA9, entry or part of it: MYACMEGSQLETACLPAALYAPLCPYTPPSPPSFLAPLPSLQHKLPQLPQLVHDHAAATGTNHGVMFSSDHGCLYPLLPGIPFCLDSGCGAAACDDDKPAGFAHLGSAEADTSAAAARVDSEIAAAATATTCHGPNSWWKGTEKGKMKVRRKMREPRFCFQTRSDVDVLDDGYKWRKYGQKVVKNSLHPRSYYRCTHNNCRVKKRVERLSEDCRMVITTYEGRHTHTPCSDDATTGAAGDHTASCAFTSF
# Some of the results follow.
# Target: OsWRKY34 (Oryza sativa, UniProt Q0JBA9 1-250)
# Test: protein-binding microarray (RPBM); PBS, 2% BSA, 51.3 ng/ul salmon testes DNA, 50 uM zinc acetate, 200 nM TF, 25 C, 1 h; high values mean tight binding
# Settings: protein: recombinant; tags: N-terminal polyhistidine and DsRed monomer fusion (pET32a); label: CyDye5-dUTP incorporated in the synthesized complementary strand; 3' TTTTT single-stranded linker to array surface; dsDNA, one strand shown
# Procedure, shortened: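 Binding signal here means per-feature fluorescence intensity in arbitrary units. The values were read on an Axon 4000B scanner after a custom Agilent array, double-stranded by primer extension with Cy5-dUTP, was incubated with 200 nM protein at 25 °C for 1 h in PBS with 2% BSA, salmon testes DNA and 50 µM zinc acetate, then washed. The proteins were transcription factors with an N-terminal polyhistidine tag and DsRed, expressed in E. coli BL21-CodonPlus and purified on Ni–NTA.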
row,Sequence,binding signal
1,TCGGCGGCGTTCTTCGGTTTCTCCGCTCACTTGCTCCCGCCGGAGTCACCTAGTGCAG,10500 fluorescence intensity (a.u.)
2,GTACTAGGCCACACACTAACCGTGCAGCGAGCTTAAATTACGGAGTCACCTAGTGCAG,8550 fluorescence intensity (a.u.)
3,CCCACTTATAGTTCTATTTTCTGGAATTCCCCATATATGACGGAGTCACCTAGTGCAG,8660 fluorescence intensity (a.u.)
4,ACATACACATCCGCTGATAATCTCTTGACCAAACCGATCCCGGAGTCACCTAGTGCAG,8200 fluorescence intensity (a.u.)
5,GCCGACCCCGCCGCAATAACCACACCAGCTTTATCTTCCACGGAGTCACCTAGTGCAG,9800 fluorescence intensity (a.u.)
6,AACCCAGCTCGTATCATGCCATATCCATCCAAAGATAATCCGGAGTCACCTAGTGCAG,8660 fluorescence intensity (a.u.)
7,TCGGGGCGGGTCTGGGAGGGCTTGCGCTTGACACGGACGACGGAGTCACCTAGTGCAG,17200 fluorescence intensity (a.u.)
8,TCCCCATCAGTGTTGTATCAGCCCTGTGGTCTCGCCCCAACGGAGTCACCTAGTGCAG,8120 fluorescence intensity (a.u.)
9,GCATATTCCTAATGACAATCACTGCTTTCTTTTGATACTGCGGAGTCACCTAGTGCAG,10100 fluorescence intensity (a.u.)
10,GTTACCCCGATTAGTTAGTTTATGTTGTACATGCTGTTGACGGAGTCACCTAGTGCAG,11000 fluorescence intensity (a.u.)
11,TAACCAGAGTAAATTTTTGGCCAACTTAAGTGCTTTCATACGGAGTCACCTAGTGCAG,9070 fluorescence intensity (a.u.)
12,ACAAATCCTGGTCATTTCTTGACCGTATGAATTCTAGAAACGGAGTCACCTAGTGCAG,9650 fluorescence intensity (a.u.)
13,ATGCTGTCTGTACTGTCCCATATGAACTCTTCTGAACAACCGGAGTCACCTAGTGCAG,8370 fluorescence intensity (a.u.)
14,TTCTGATCAAGGTTTAGACCGCCCAAGGCTTTGACCAATACGGAGTCACCTAGTGCAG,8800 fluorescence intensity (a.u.)
15,GCTCCGTTTTCACCCTTCGCAAACGTGCCCTTAAGACATTCGGAGTCACCTAGTGCAG,9010 fluorescence intensity (a.u.)
16,GCTAGTGGGGTGAGGGTGTGTGTTTGGTTGGTGAGCAATGCGGAGTCACCTAGTGCAG,8710 fluorescence intensity (a.u.)
17,TTCATTTGGCCCTTCATATATGCTCTCTCCGTAAAAAAAACGGAGTCACCTAGTGCAG,9480 fluorescence intensity (a.u.)
18,CATTCCACCTAGCTTAATTTAATTAATTAATCCTTTCAGCCGGAGTCACCTAGTGCAG,9540 fluorescence intensity (a.u.)
19,GTTCCCAACGGTCACCTCGTCGTCGTTGCCAAATCTGCCACGGAGTCACCTAGTGCAG,8670 fluorescence intensity (a.u.)
20,TTCACGACCTTCCATCCGCCGTTCCGGCTATTTCCCTTACCGGAGTCACCTAGTGCAG,8120 fluorescence intensity (a.u.)
21,CTGGTTCGGGAATTTCTGGGTGTATAGGGAAATAATTTATCGGAGTCACCTAGTGCAG,8060 fluorescence intensity (a.u.)
22,TAGGGTTGGTTGAGTGAATCAGGTGAAATACGTTTTTTGTCGGAGTCACCTAGTGCAG,9210 fluorescence intensity (a.u.)
23,TTGAAACCGTCTTGGGATTTATTTTGCATTGGTTTTGATACGGAGTCACCTAGTGCAG,8070 fluorescence intensity (a.u.)
24,GGGGTGTTTAGATTCAGTGGTGTAAAGTTTTAACGTGTCACGGAGTCACCTAGTGCAG,10300 fluorescence intensity (a.u.)
25,TCCGTTTCGGAATGTTTGACGCCGTTGACTTTTTATTACACGGAGTCACCTAGTGCAG,25400 fluorescence intensity (a.u.)
26,TCCCAGTATATCTGAAAAACCTCATCCCGTTTCACCATTTCGGAGTCACCTAGTGCAG,8040 fluorescence intensity (a.u.)
27,CAGTATCATTCGCAGGCCTGTAGCTTTCCTACATTTGTCCCGGAGTCACCTAGTGCAG,9320 fluorescence intensity (a.u.)

# Copied from the list:
# GTTCCCAACGGTCACCTCGTCGTCGTTGCCAAATCTGCCACGGAGTCACCTAGTGCAG | binding signal: 8670 fluorescence intensity (a.u.)
# CATTCCACCTAGCTTAATTTAATTAATTAATCCTTTCAGCCGGAGTCACCTAGTGCAG | binding signal: 9540 fluorescence intensity (a.u.)
# GTACTAGGCCACACACTAACCGTGCAGCGAGCTTAAATTACGGAGTCACCTAGTGCAG | binding signal: 8550 fluorescence intensity (a.u.)
# GCTAGTGGGGTGAGGGTGTGTGTTTGGTTGGTGAGCAATGCGGAGTCACCTAGTGCAG | binding signal: 8710 fluorescence intensity (a.u.)

# (next part)

row,Sequence,binding signal
1,CAACTCGTACTATCCCTTTGCACAGCCAGCAGGTTAACCACGGAGTCACCTAGTGCAG,11100 fluorescence intensity (a.u.)
2,TTCCTTTTCTTGGGGTCGAGGGCAACAGTATCCCTCACTTCGGAGTCACCTAGTGCAG,10800 fluorescence intensity (a.u.)
3,AGTTTATTGTACCTGCTCTTATTCCACTCATATTATTACACGGAGTCACCTAGTGCAG,9420 fluorescence intensity (a.u.)
4,GCGCCTCTGTCCGCCTCCGCCGCTGCCCTCCGCCACCTCGCGGAGTCACCTAGTGCAG,8880 fluorescence intensity (a.u.)
5,TACATCGGTTTTGATAGTTGAGGTACCCGTCGTATTTGGTCGGAGTCACCTAGTGCAG,8390 fluorescence intensity (a.u.)
6,CTCCGCCTCCGCCTCCGCGTGATCTCTTCTCGCTTCACGCCGGAGTCACCTAGTGCAG,9160 fluorescence intensity (a.u.)
7,TTTTTGTTTAATTGTGTGGTCTAGATAGTCTAGGATCATCCGGAGTCACCTAGTGCAG,8250 fluorescence intensity (a.u.)
8,GCAGCATCACACGTACTCAGAATTCAGAAACACACAACCACGGAGTCACCTAGTGCAG,8660 fluorescence intensity (a.u.)
9,ATATGCATGCCATTATCTCTTCTTCAGGGACCAACTTATACGGAGTCACCTAGTGCAG,8930 fluorescence intensity (a.u.)
10,ATCCACCAACATTCTCTTCCCAACCAATCACAACCCTCCACGGAGTCACCTAGTGCAG,8140 fluorescence intensity (a.u.)
11,CGTGGCCTAGTTTTGCAAGATTAATCTGGACCGTTGATAGCGGAGTCACCTAGTGCAG,8440 fluorescence intensity (a.u.)
12,ACACACCCCGTGCCACGTCGGCCTCACACCCCTCAGGTTACGGAGTCACCTAGTGCAG,8840 fluorescence intensity (a.u.)
13,AAGAACTGATCATCGACTGACATCACTACCTTTTTCATATCGGAGTCACCTAGTGCAG,8610 fluorescence intensity (a.u.)
14,ACTGCTCCTCGCTTTCGTTTCTCCGAGAGGTTTAGGTTAACGGAGTCACCTAGTGCAG,11300 fluorescence intensity (a.u.)
15,TTCCGCACACTCCACTCCACCCCACCCGCTGCCTCTGCCTCGGAGTCACCTAGTGCAG,8710 fluorescence intensity (a.u.)
16,AACATTTCGCTTCTATCTGCCGCTTATAAGCCAAAACTTACGGAGTCACCTAGTGCAG,10200 fluorescence intensity (a.u.)
17,CGCCTCCGCTTCGATCGCTTCCTCCGTTGCCGCCGATCCCCGGAGTCACCTAGTGCAG,8100 fluorescence intensity (a.u.)
18,GGATATTTCTGACACAGGGCGCGTTTTTTTTTTTTTTATTCGGAGTCACCTAGTGCAG,9600 fluorescence intensity (a.u.)
19,CGCCTCACCCACTTCGCCCGCCGCCTCCGTCTCCATCAACCGGAGTCACCTAGTGCAG,9760 fluorescence intensity (a.u.)
20,GATTTTTCTTTACATGTTCTTTTTCATCGATCTTTTGAGACGGAGTCACCTAGTGCAG,9460 fluorescence intensity (a.u.)
21,CATATATGCACCCCGGGTCACTAGCTACCTTTACCTTTTTCGGAGTCACCTAGTGCAG,8480 fluorescence intensity (a.u.)
22,GTTGCCGCATTCGCACCGTCTCCGCCTTCATGGCCTGTTTCGGAGTCACCTAGTGCAG,13700 fluorescence intensity (a.u.)
23,CATGCACGCTTGCTAAACTGTGTGTTTTTTAAAATTTTTCCGGAGTCACCTAGTGCAG,8180 fluorescence intensity (a.u.)
24,ACCATTCGGCATTCGCTTTGCTAGCCTTTGTTTTCTATATCGGAGTCACCTAGTGCAG,11300 fluorescence intensity (a.u.)
25,GGTCCCTAAACTTGTACTGCTGTGTCATCCCGGTCCCTAACGGAGTCACCTAGTGCAG,8680 fluorescence intensity (a.u.)
26,TCCATTTGTCACCCGGTTTTATCCTACGTGGCGCTTTGACCGGAGTCACCTAGTGCAG,8630 fluorescence intensity (a.u.)
27,ATCTGCTAACCATCTTATATTGTTATGTCGTACATTGCACCGGAGTCACCTAGTGCAG,10100 fluorescence intensity (a.u.)
